Experimental data reported in the supplement of paper PMC6414424.
± gives the standard deviation of the averaged measurements. This is one part of the list.

The compounds below were run on APPdp1-6 iPSC-derived neurons (assay: pThr231Tau/total Tau ratio Z-score vs DMSO vehicle wells; higher = more pThr231Tau relative to total Tau). Settings: 5 µM; treatment time 5 days.

Compound	pThr231Tau/total Tau ratio Z-score
CC(=O)CC(c1ccc([N+](=O)[O-])cc1)c1c(O)c2ccccc2oc1=O (centres undefined) [Prestw-110]	1.12 ± 0.74
CC1(C)S[C@@H]2[C@H](NC(=O)COc3ccccc3)C(=O)N2[C@H]1C(=O)O [PENICILLIN V POTASSIUM    Therap cat: antibacterial]	-1.1276 ± 0.0011
CCCC(=O)O[C@]1(C(=O)CO)CC[C@H]2[C@@H]3CCC4=CC(=O)CC[C@]4(C)[C@H]3[C@@H](O)C[C@@]21C	0.485 ± 0.96
COc1ccc2c3c1O[C@H]1C[C@@H](O)C=C[C@@]31CCN(C)C2 [Prestw-588]	0.107 ± 0.57
O=c1[nH]c(=O)n([C@H]2C[C@H](O)[C@@H](CO)O2)cc1C(F)(F)F [Prestw-1056]	0.775 ± 0.27
Cc1nnc(SCC2=C(C(=O)O)N3C(=O)[C@@H](NC(=O)Cn4cnnn4)[C@H]3SC2)s1 [Prestw-736]	0.108 ± 0.009
CC(C)Cn1cnc2c(N)nc3ccccc3c21 [Prestw-1291]	-0.259 ± 0.79
CC(=O)OCC(=O)[C@@]1(O)[C@H](OC(C)=O)C[C@H]2[C@@H]3CCC4=CC(=O)C=C[C@]4(C)[C@@]3(F)[C@@H](O)C[C@@]21C [TRIAMCINOLONE DIACETATE    Therap cat: antiinflammation]	2.97 ± 2.8
NC(=O)N1c2ccccc2CC(=O)c2ccccc21 [Prestw-1156]	1.75 ± 2.8
Cc1cccc(Nc2ccncc2S(=O)(=O)NC(=O)NC(C)C)c1 [Prestw-1030]	-0.641 ± 0.56
C[C@]12CC[C@H]3[C@@H](CCC4=CC(=O)CC[C@@]43C)[C@@H]1CC[C@@H]2C(=O)CO [Prestw-957]	-0.764 ± 0.5
C=N[C@@H](C(=O)N[C@@H]1C(=O)N2[C@@H]1SC(C)(C)[C@@H]2C(=O)O)c1ccccc1 [METAMPICILLIN SODIUM    Therap cat: antimicrobial]	0.98 ± 0.14
CC[N+](CC)(CC(=O)Nc1c(C)cccc1C)Cc1ccccc1 [Prestw-961]	-0.173 ± 1.2
COc1cc(NS(=O)(=O)c2ccc(N)cc2)nc(OC)n1 [Prestw-728]	-0.3 ± 0.91
CC1(C)O[C@@H]2[C@@H](CO[C@@]3(COS(N)(=O)=O)OC(C)(C)O[C@@H]23)O1 [Prestw-1493]	1.09 ± 0.24
CC(CN1c2ccccc2Sc2ccccc21)N(C)C (centres undefined) [Prestw-888]	0.37 ± 0.14
NS(=O)(=O)c1cc2c(cc1C(F)(F)F)NC(Cc1ccccc1)NS2(=O)=O (centres undefined) [Prestw-784]	-0.7 ± 0.16
O[C@@H](c1cc(C(F)(F)F)nc2c(C(F)(F)F)cccc12)[C@H]1CCCCN1 [Prestw-126]	-1.1 ± 0.7
O=C(CCCCCCCCCCCCC1CCCC1)Nc1ccc(S(=O)(=O)c2ccc(NC(=O)CCCCCCCCCCCCC3CCCC3)cc2)cc1	-0.113 ± 0.2

Reprinted at random: two compounds from above.
Compound	pThr231Tau/total Tau ratio Z-score
CCCC(=O)O[C@]1(C(=O)CO)CC[C@H]2[C@@H]3CCC4=CC(=O)CC[C@]4(C)[C@H]3[C@@H](O)C[C@@]21C	0.485 ± 0.96
Cc1cccc(Nc2ccncc2S(=O)(=O)NC(=O)NC(C)C)c1 [Prestw-1030]	-0.641 ± 0.56
